This note sets out measurements from patent publication US20220025050A1 (OSE IMMUNOTHERAPEUTICS, published 2022).

The chains behind the UniProt entries cited, without tags or fusion partners. Where a name states a change or a piece, a line headed by the entry shows the natural chain unless it says otherwise. Residues count along the entry.
UniProt Q15116, residues 25-167: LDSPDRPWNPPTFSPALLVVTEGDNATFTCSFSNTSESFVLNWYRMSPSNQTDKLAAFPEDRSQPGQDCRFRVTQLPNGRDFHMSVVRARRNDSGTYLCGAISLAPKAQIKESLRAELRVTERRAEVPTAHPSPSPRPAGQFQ
UniProt P78324: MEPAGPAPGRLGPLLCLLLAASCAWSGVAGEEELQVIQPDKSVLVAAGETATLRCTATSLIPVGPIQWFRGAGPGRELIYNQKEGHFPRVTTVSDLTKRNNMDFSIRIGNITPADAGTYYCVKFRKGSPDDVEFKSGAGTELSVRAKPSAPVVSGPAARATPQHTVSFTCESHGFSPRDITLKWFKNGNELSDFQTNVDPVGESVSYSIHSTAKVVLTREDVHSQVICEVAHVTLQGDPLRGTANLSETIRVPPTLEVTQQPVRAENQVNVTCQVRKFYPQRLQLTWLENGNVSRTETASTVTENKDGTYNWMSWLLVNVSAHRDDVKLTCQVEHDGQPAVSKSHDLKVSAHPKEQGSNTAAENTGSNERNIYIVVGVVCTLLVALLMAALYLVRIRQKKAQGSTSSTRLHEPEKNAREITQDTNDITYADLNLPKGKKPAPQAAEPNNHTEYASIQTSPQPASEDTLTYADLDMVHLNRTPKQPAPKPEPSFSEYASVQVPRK

These are yes or no findings as the source states them, for the method shown. Some results given as binding are weak or reduced against the parent protein; the word gives no strength.

This test concerns the target recombinant hPD1 (Sino Biologicals, reference 10377-H08H) (human) (UniProt Q15116). In words: PD-1 binding ELISA (FIG. 5, Table 2). In general terms: ELISA stands for enzyme-linked immunosorbent assay.

As to “Chimeric anti-PD1 fused on its heavy chain to Type I-protein C (SIRPa) (from UniProt P78324 31-373)”, the binding result is “binds”.
